Test results: the supplement of paper PMC3334620
Over roughly 33,000 sequences, “E-score (-0.5 to 0.5)” has its median near -0.0034; the highest 2% begin near 0.25. The list shows a part of the results.

Target: T1, Yap3 (UniProt P38749)
T1 sequence: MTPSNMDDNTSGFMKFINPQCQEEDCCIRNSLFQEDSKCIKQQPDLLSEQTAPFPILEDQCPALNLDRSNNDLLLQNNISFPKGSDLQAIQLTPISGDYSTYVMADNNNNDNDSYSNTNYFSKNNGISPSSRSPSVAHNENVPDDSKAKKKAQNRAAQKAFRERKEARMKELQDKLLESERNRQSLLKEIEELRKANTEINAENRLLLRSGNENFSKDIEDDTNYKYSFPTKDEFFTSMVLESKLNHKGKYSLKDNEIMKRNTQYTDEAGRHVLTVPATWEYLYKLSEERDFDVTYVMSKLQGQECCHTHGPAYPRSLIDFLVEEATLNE
Test: PBM E-score (8-mer binding enrichment) (E-score (-0.5 to 0.5)); higher = stronger / more preferred TF binding
Details: protein concentration: 100 nM; construct: GST-full length
In short: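 Universal all-10-mer Agilent arrays, double-stranded by primer extension on fresh or once-stripped slides, were probed with about 100-200 nM GST-tagged yeast transcription factors made by PURExpress. Fluorescent anti-GST detected bound protein, and masliner normalised the scans. E-scores from the Universal PBM Analysis Suite were given to each ungapped eight-base word pooled with its reverse complement.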

| Sequence | PBM E-score |
| --- | --- |
| CCGGATCG | -0.121 |
| GTCTAGAC | -0.104 |
| TAATTGCA | 0.195 |
| ATACCGCC | -0.0222 |
| ATCTGGCC | -0.0483 |
| GTCTTGTA | -0.0728 |
| TAATGGTA | -0.0483 |
| CCTCCCAC | -0.157 |
| AAATTGTA | 0.182 |
| TAGTAACA | 0.184 |
| CGCTATTC | 0.174 |
| AATGCCTC | 0.00318 |
| CAGCCGTC | -0.126 |
| ATTGTATG | 0.151 |
| ACGAGTTA | 0.104 |
| CCCCAAGA | -0.106 |
| GCAGCTTA | 0.0331 |
| CATTTTAC | 0.332 |
| ATTCATTC | 0.222 |
| AGGCCCCT | -0.411 |
| CACGGACA | -0.141 |
| TACTGCGA | -0.0426 |
| GACATATA | 0.195 |
| TCAAACGA | -0.165 |
| AAGCGTAA | -0.0172 |

| Sequence | PBM E-score |
| --- | --- |
| CTCCATGA | -0.069 |
| GAGACTTA | -0.13 |
| AGCCATAA | 0.0277 |
| AGACATCC | -0.152 |
| AGGTTCTC | -0.146 |
| CTTCGGCA | -0.166 |
| AGATTACC | 0.155 |
| ACCAAATC | 0.0358 |
| CTTATGCA | 0.0746 |
| GTAAGTAC | 0.14 |
| AGCACGAA | 0.212 |
| CCACCCAC | -0.128 |
| AGTGAGGC | -0.105 |
| GCCTGCTA | -0.119 |
| GAGTAGAA | 0.117 |
| GAAGACCA | -0.105 |
| ATAAGAGC | 0.0623 |
| CGGAAGGC | -0.277 |
| ACGCGGCC | -0.0675 |
| AACACTGG | 0.0398 |
| CGATGGAA | -0.079 |
| ACTCTTCC | -0.108 |
| ACAGCCAG | 0.00109 |
| ATTCATCA | 0.117 |
| CAGCCCGA | -0.216 |

| Sequence | PBM E-score |
| --- | --- |
| ACGCAGCG | -0.173 |
| AGGTAGTA | 0.0606 |
| GAGCAGCC | -0.2 |
| GTATGTCA | 0.243 |
| TCTAAACA | -0.0582 |
| GCGCACCA | -0.0312 |
| CCTGCTAA | -0.12 |
| AGCCGTAA | 0.066 |
| ACAAGATC | -0.145 |
| AAGAGGAT | -0.0744 |
| AAAATTGT | 0.244 |
| CTATGCAG | -0.0654 |
| CTTACGAA | 0.259 |
| AGGAACAC | 0.0765 |
| AGTCATTC | 0.0132 |
| ATGCGACG | -0.0983 |
| TACTCGGA | 0.0884 |
| CACCTAGA | -0.182 |
| AACCTACA | 0.124 |
| TACTGGCA | -0.173 |
| GAGGGCAA | 0.0305 |
| CCCGGGAG | -0.312 |
| GGACGTCC | 0.0464 |
| CCCCAACC | -0.197 |
| CTACATCC | 0.0357 |

Looked up one by one from the entries so far:

| Sequence | PBM E-score |
| --- | --- |
| CCTGCTAA | -0.12 |
| AGCCGTAA | 0.066 |
| TACTGGCA | -0.173 |
| AACCTACA | 0.124 |
| GAGCAGCC | -0.2 |
| CTTACGAA | 0.259 |

Next part.

| Sequence | PBM E-score |
| --- | --- |
| CATAAGTC | 0.112 |
| CAGTACAC | 0.00873 |
| AATAGTGC | 0.0377 |
| AGGGGGTC | -0.414 |
| ATGGCCTA | -0.06 |
| ATTAACGG | 0.14 |
| GTTGAGAA | -0.0265 |
| TCCCTGCA | -0.0631 |
| GACGTGCC | -0.337 |
| GTGTCAGA | 0.0215 |
| GTACTGCA | -0.0543 |
| ACTGCTCT | 0.0428 |
| GACCAATC | 0.165 |
| ACTAAGAG | 0.0259 |
| AGTAATAA | 0.254 |
| AGCGGTGA | -0.129 |
| CGCATGCA | 0.124 |
| AGGCCGTA | -0.00589 |
| AGAAAGAC | 0.0627 |
| GAAATGCC | 0.0869 |
| GATTTCGA | 0.12 |
| CAGAACAG | 0.105 |
| AGTCTAGG | -0.166 |
| CAGGGTTC | -0.119 |
| CATTGGGG | -0.0497 |

| Sequence | PBM E-score |
| --- | --- |
| AAAGCGAA | 0.0836 |
| ATCCATTC | 0.149 |
| AGTGTTGA | -0.00013 |
| AAGTGATG | 0.133 |
| AGGGGCAA | 0.0575 |
| AATTGCAC | 0.156 |
| AGTTCCAA | 0.00636 |
| TATTTAAA | 0.225 |
| GTAAGACA | 0.108 |
| AATACCCA | 0.0353 |
| AAACAAGG | -0.00676 |
| GGGACCGA | -0.124 |
| GGTATTAC | 0.254 |
| CGTACTGC | 0.0305 |
| AAGTTGAG | 0.104 |
| GGATTCGA | -0.117 |
| AAGACTGT | -0.0596 |
| ACTTCTCG | 0.159 |
| AACTCGTC | 0.0786 |
| ACGAAACC | 0.0818 |
| CAGGTCGA | 0.0474 |
| AATTCGAG | 0.022 |
| GCACCGAA | 0.113 |
| CACTCAGC | -0.0393 |
| CCATTTAA | 0.0936 |

| Sequence | PBM E-score |
| --- | --- |
| ATCCTTGG | 0.0236 |
| AGAAAAAA | 0.133 |
| GCCCGCGA | -0.101 |
| AGCGGTAG | -0.116 |
| CAGGGGGC | -0.307 |
| GACGATGA | -0.0458 |
| CCGCGTTC | 0.00571 |
| GTCCTGGA | -0.13 |
| ACCTGTAT | -0.0287 |
| AAAATCGG | 0.0216 |
| CGCGATGC | -0.227 |
| TGTGTCAA | 0.094 |
| CAGGACGC | -0.23 |
| CAAATATA | 0.0799 |
| CTTCTCCA | -0.0794 |
| AGTTCCCA | 0.0628 |
| ACAGGTGA | 0.0927 |
| AGGGTCCG | -0.262 |
| CATATCGG | 0.00508 |
| GTTTGAGA | -0.0917 |
| CAGTACCG | -0.0765 |
| TAAGCAAA | 0.0998 |
| GCAACGGA | 0.118 |
| ACTGGCCG | -0.273 |
| AGGATGTA | 0.0873 |

| Sequence | PBM E-score |
| --- | --- |
| GAAAAATC | 0.127 |
| CTGTCTAC | 0.03 |
| GACGTTTA | -0.0849 |
| AACTCACC | -0.0151 |
| ACAATCTC | -0.0263 |
| ATAGAAGC | 0.104 |
| CGTAGAAC | -0.195 |
| GGCCCCCA | -0.482 |
| CTACTAGC | 0.097 |
| ACGACCCC | -0.109 |
| AACGGCAT | 0.249 |
| ACAACAGT | 0.0285 |
| CAGATGAC | -0.0623 |
| GGGGGGTA | -0.393 |
| AACAATTG | -0.0238 |
| GACTTACC | -0.11 |
| CTCAGCGC | -0.114 |
| ACTCAAAC | 0.0791 |
| ATGAAGCC | 0.0364 |
| ACTGAGTC | -0.0122 |
| GTGATATA | 0.0989 |
| CACCTAGC | -0.196 |
| ATCTCCGA | 0.0977 |
| TCTTCACA | 0.128 |
| CGCACAAC | 0.127 |

Part of the list above, set out differently:
Sequence,PBM E-score
ACGACCCC,-0.109
CAGATGAC,-0.0623
CTCAGCGC,-0.114
ACTGAGTC,-0.0122

Next results

| Sequence | PBM E-score |
| --- | --- |
| CAGCTGAA | -0.051 |
| CCGAGTAG | 0.0617 |
| ATCCCGGG | -0.0376 |
| GGCCGCGA | -0.214 |
| AGGAATTG | 0.207 |
| ACGGAAAG | 0.144 |
| GACGCTAC | -0.0197 |
| GATGCTGA | -0.159 |
| AATGAATA | 0.109 |
| GTACCGCA | 0.00409 |
| CGGACGAG | -0.182 |
| GCCTGTCC | -0.0695 |
| CCAACACG | 0.0734 |
| TGTCACAA | 0.133 |
| CTTACCAA | 0.212 |
| CTATACCC | -0.078 |
| ACTAACCT | 0.111 |
| CTTTACTC | 0.203 |
| CGGGGCTA | -0.274 |
| AAGTCTTG | -0.07 |
| GGGTTTTA | 0.108 |
| ACGCCCGG | -0.243 |
| CTGCTCCC | -0.122 |
| TCCTTAAA | 0.00477 |
| AGTACCCA | 0.0173 |

| Sequence | PBM E-score |
| --- | --- |
| CACCCTCA | -0.133 |
| AAAAGCTA | 0.0332 |
| ATAAAGTA | 0.286 |
| CACGAGCA | -0.0731 |
| AAACCTGG | 0.0037 |
| GATCAACA | -0.0544 |
| CGTGAGAC | -0.00333 |
| AATCTCGG | 0.0476 |
| TCCGCAGA | -0.0532 |
| ATCCGCGC | -0.0738 |
| CAGCCTCC | -0.321 |
| ACTCGCAA | 0.0289 |
| ATGTTACG | 0.0978 |
| CATACATG | 0.0348 |
| GGGCGCGA | -0.154 |
| CTCCAAGC | -0.00131 |
| AGAGGAAG | -0.0758 |
| GGCCTCAA | -0.0177 |
| AGCCCCGG | -0.257 |
